Where a name gives a salt, the structure may show the parent alone. The list shows a part of the results. Hit calls seldom repeat between salt and free forms of one compound.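 Kinases, fused to nanoluciferase, were expressed in K562 cells; luminescence was measured every 4 h from 2 to 18 h as percent of control (DMSO = 100%, positive control = 0%). A time point is decreased if signal falls significantly (2 sigma). Hits were called by the authors by a rule that is not shown; the count of time points alone does not decide it.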
The compounds below were run against STK38 (UniProt Q15208) (assay: kinase-Nluc reporter destabilization hit call (1 = scored as downregulated) (binary); higher = compound decreases kinase abundance). Details: 10 µM; K562; 2-18 h.

Amino acid sequences for entries named in this document (tags omitted). A change or cut given only in a name is not applied to a line headed by its entry.
UniProt Q15208: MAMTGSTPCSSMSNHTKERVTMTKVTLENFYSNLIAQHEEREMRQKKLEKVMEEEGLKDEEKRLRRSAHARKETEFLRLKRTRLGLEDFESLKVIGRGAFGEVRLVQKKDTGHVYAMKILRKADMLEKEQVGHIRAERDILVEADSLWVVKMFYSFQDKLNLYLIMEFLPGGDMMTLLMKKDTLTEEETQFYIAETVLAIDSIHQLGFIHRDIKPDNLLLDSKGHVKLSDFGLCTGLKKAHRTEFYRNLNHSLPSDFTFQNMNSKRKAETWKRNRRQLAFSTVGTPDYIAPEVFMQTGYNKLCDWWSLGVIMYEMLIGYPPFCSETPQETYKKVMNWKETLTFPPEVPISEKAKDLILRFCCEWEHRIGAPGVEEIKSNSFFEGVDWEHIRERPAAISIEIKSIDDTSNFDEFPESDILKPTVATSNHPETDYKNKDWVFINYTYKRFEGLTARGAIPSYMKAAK

kinase-Nluc reporter destabilization hit call, inactive:
COc1ncc(F)cc1CNc1ccc(Cc2c[nH]c3ncc(C)cc23)c(F)n1 [PLX5622 (hemifumarate)] 0, C#Cc1cccc(Nc2ncnc3cc(OCCOC)c(OCCOC)cc23)c1 [Erlotinib] 0, Oc1cccc(-c2nc(N3CCOCC3)c3oc4ncccc4c3n2)c1 0, C#Cc1cccc(Nc2ncnc3cc(OCCOC)c(OCCO)cc23)c1 [Desmethyl Erlotinib (hydrochloride)] 0, C[C@@H](N)[C@H]1CC[C@H](C(=O)Nc2ccncc2)CC1 0, C#Cc1cccc(Nc2ncnc3cc4c(cc23)OCCOCCOCCO4)c1 [Icotinib] 0, C#Cc1cccc(Nc2ncnc3cc4c(cc23)OCCOCCOCCO4)c1 [Icotinib (Hydrochloride)] 0, O=C(c1ccc(F)c(F)c1Nc1ccc(I)cc1F)N1CC(O)([C@@H]2CCCCN2)C1 [Cobimetinib] 0, COc1cc2nccc(Nc3cc(OC)c(OC)c(OC)c3)c2cc1OC [GAK inhibitor 49 (hydrochloride)] 0, O=C(c1ccc(F)c(F)c1Nc1ccc(I)cc1F)N1CC(O)([C@@H]2CCCCN2)C1 [Cobimetinib (hemifumarate)] 0, C=CC(=O)Nc1cc(Nc2ncc(C(=O)OC(C)C)c(-c3cn(C)c4ccccc34)n2)c(OC)cc1N(C)CCN(C)C [Mobocertinib (succinate)] 0, CNC(=O)c1ccccc1Nc1cc(Nc2ccc(N3CCOCC3)cc2OC)ncc1C(F)(F)F [PND-1186 (hydrochloride)] 0, Cc1cccc(/C=N/Nc2cc(N3CCOCC3)nc(OCCc3ccccn3)n2)c1 [Apilimod (mesylate)] 0, O=C(O)c1ccc2c(c1)nc(Nc1cccc(Cl)c1)c1ccncc12 [Silmitasertib (sodium salt)] 0, C[C@H](CCC(=O)NCCS(=O)(=O)O)[C@H]1CC[C@H]2[C@@H]3[C@@H](O)C[C@@H]4C[C@H](O)CC[C@]4(C)[C@H]3CC[C@]12C [Tauroursodeoxycholate (dihydrate)] 0, COc1cc2c(cc1OC)-c1c(C)c3ccc(OC)c(OC)c3c[n+]1CC2 [Dehydrocorydaline (chloride)] 0, Clc1ccc(C2(c3ccc(-c4cn[nH]c4)cc3)CCNCC2)cc1 0, CCCC(=O)Nc1ncnc2c1ncn2[C@@H]1O[C@@H]2COP(=O)(O)O[C@H]2[C@H]1OC(=O)CCC [Bucladesine (calcium)] 0, CCS(=O)(=O)N1CCN(c2ccc(Nc3ncc(C(N)=O)c(NC4CC4)n3)cc2)CC1 [Cerdulatinib] 0, CCS(=O)(=O)N1CC(CC#N)(n2cc(-c3ncnc4[nH]ccc34)cn2)C1 [Baricitinib (phosphate)] 0, FC(F)(F)c1ccc(CNc2ccc(Cc3c[nH]c4ncc(Cl)cc34)cn2)cn1 [Pexidartinib (hydrochloride)] 0, O=C(Nc1cnn2ccc(N3CCC[C@@H]3c3cc(F)ccc3F)nc12)N1CC[C@H](O)C1 [Larotrectinib sulfate] 0, C[C@@H](N)c1ccc(C(=O)Nc2ccnc3[nH]ccc23)cc1 0, C[S+]([O-])c1ccc(-c2nc(-c3ccc(F)cc3)c(-c3ccncc3)[nH]2)cc1 (stereo unspecified) 0, CS(=O)(=O)N1CCN(Cc2cc3nc(-c4cccc5[nH]ncc45)nc(N4CCOCC4)c3s2)CC1 [Pictilisib (dimethanesulfonate)] 0

Each compound was assayed against SYK (UniProt P43405) in the same assay as above. Details: 2.5 µM; K562; 2-18 h.

kinase-Nluc reporter destabilization hit call, inactive:
C=CC(=O)Nc1cc(Nc2nccc(-c3cn(C)c4ccccc34)n2)c(OC)cc1N(C)CCN(C)C [Osimertinib mesylate] 0, Cc1cccc(-c2[nH]c(CNc3ccccc3F)nc2-c2ccc3ncnn3c2)n1 [Vactosertib (Hydrochloride)] 0, CC(C)Oc1ccc(-c2nn([C@@H](C)c3oc4ccc(F)cc4c(=O)c3-c3cccc(F)c3)c3ncnc(N)c23)cc1F [Umbralisib (hydrochloride)] 0, COc1ccc(S(=O)(=O)Nc2ccccc2CN(C)C/C=C/c2ccc(Cl)cc2)cc1 [KN-92 (phosphate)] 0, CN(C)C(=O)c1cc2cnc(Nc3ccc(N4CCNCC4)cn3)nc2n1C1CCCC1 [Ribociclib succinate hydrate] 0, C=CC(=O)Nc1cc2c(Nc3ccc(F)c(Cl)c3)ncnc2cc1C#CC(C)(C)N1CCN(C)CC1 0, Cc1cccc(/C=N/Nc2cc(N3CCOCC3)nc(OCCc3ccccn3)n2)c1 [Apilimod] 0, COc1cc2c(Oc3ccc4[nH]c(C)cc4c3F)ncnc2cc1OCCCN1CCCC1 [Cediranib] 0, Cc1cc(Nc2ncc(Cl)c(Nc3ccccc3S(=O)(=O)C(C)C)n2)c(OC(C)C)cc1C1CCNCC1 [Ceritinib dihydrochloride] 0, Nc1ncnc2c1c(-c1ccc(Oc3ccccc3)cc1)nn2[C@@H]1CCCNC1 0, CNC(=O)c1cc(Oc2ccc(NC(=O)Nc3ccc(Cl)c(C(F)(F)F)c3)c(F)c2)ccn1 [Regorafenib] 0

Reference: the supplement of paper PMC12823440, “Inhibitors supercharge kinase turnover through native proteolytic circuits” (Nature, 2025)
